# Test results published in patent US20190062453A1.
# Changes are numbered by the printed parent chain. Results are given in words; binding and its absence hold for the method and conditions named. Binding can be weak; no strength is given.
# B1: DR5TAA-0067 (antibody, human IgG1, kappa, L234A L235A, V domains shown)
# VH: EVQLVETGGGLIQPGGSLRLSCAASGFTVSRYAMIWVRQAPGKGLEYIGFITSDGSTYYADSAKGRFTISRDNSKNTLYLQMNSLRAEDTAVYYCARYTYSDGTDLWGRGTLVTVSS
# VL: DIQMTQSPSTLSASVGDRVTITCRASQSISTYLSWYQQKPGKAPKRLIYKASSLASGVPSRFSGSGSGTEFTLTISSLQPDDAATYYCQPNSGIATYGAAFGGGTKVEIKR
# B2: DR5TAA-0068 (antibody, human IgG1, kappa, L234A L235A, V domains shown)
# VH: QVQLVESGGGLVQPGGSLRLSCSASGFSISRYAMIWVRQAPGKGLEYVGFITSDSSAYYASWAKGRFTISRDNSKNTLYLQMNSLRAEDTAVYYCARYTYSDGTDLWGQGTLVTVSS
# VL: B1 VL with T10S, K42Q, A43P, S53T, E70D, D81E, A83F
# B3: DR5TAA-0075 (antibody, human IgG1, kappa, L234A L235A, V domains shown)
# VH: B1 VH
# VL: B1 VL with T10S, R24Q, K42Q, A43P, S53T, E70D, D81E, A83F
# B4: DR5TAA-0073 (antibody, human IgG1, kappa, L234A L235A, V domains shown)
# VH: B2 VH
# VL: B1 VL with T10S, S53T, E70D, D81E
# B5: DR5TAA-0066 (antibody, human IgG1, kappa, L234A L235A, V domains shown)
# VH: B1 VH
# VL: B1 VL with T10S, S53T, E70D, D81E
# B6: DR5TAA-0074 (antibody, human IgG1, kappa, L234A L235A, V domains shown)
# VH: B1 VH
# VL: B1 VL with T10S, K42Q, A43P, S53T, E70D, D81E, A83F
# B7: DR5TAA-0019 (antibody, V domains shown)
# VH: QSVEESGGRLVTPGTPLTLTCTVSGFSLSNYAMSWVRQAPGKGLEWIGIISSSGTTYYASWAKGRFTISKTSTTVDLKVTSPTTEDTATYFCARETYYGYSYAAGLWGPGTLVTVSS
# VL: ALVMTQTPSSVSAAVGGTVTINCQASQNIYSNLAWFQQKPGQPPKLLIYETSKLASGVPSRFSGSGSGTEFTLTISDLECDDAATYYCQSSWHSISTDCAFGGGTEVVVKG
# B8: DR5TAA-0016 (antibody, V domains shown)
# VH: QSLEESGGRLVKPDETLTLTCTVSGFSLNNYAMSWVRQAPGKGLEWIGMINKYGTKYYATWTKGRATISKTSTTLDLEITSPTTEDTATYFCARVRYAGDDYAEWLDVWGQGILVTVSS
# VL: DIVMTQTASPVSAAVGGTVTINCQASQSISSSYVSWYQQKPGQPPKLLIYKASTLASGVPSRFSGSGSGTQLSLTIRGVQCDDAATYYCLYGYSDVSSSEYVFGGGTEVVVRG
# B9: DR5TAA-0005 (antibody, V domains shown)
# VH: QSLEESGGRLVTPGTPLTLTCTASGFSLSSAYMSWVRQAPGKGLEWIGYIYSGSGSTWYASWVKGRFTISKTSTTVDLKITSPTTEDTATYFCARGYSTMGDLWGPGTLVTVSS
# VL: QVLTQTPSPVSAAVGGTVTINCQASQSVYNNRLAWYQQKPGQPPKLLIYLASTLASGVPSRFKGSGSGTQFTLTISDLQCDDAATYYCAGGYSGNINAFGGGTEVVVKG
# B10: DR5TAA-0010 (antibody, V domains shown)
# VH: QSLEESGGRLVKPDETLTLTCTVSGFSLSSNAISWVRQAPGMGLEWIGIIGSSGYTYYASWAKGRFTVSKTSTTVDLEIASPTTEDTATYFCARGYSGASDYSFNLWGPGTLVTVSS
# VL: AYDMTQTPDSVEVAVGGTVTIKCQASQTIGDALAWYQQKPGQRPNLLIYRTSTLASGVPSRFSGSGSGTHFTLTISGVECADAATYYCQQGATYNNVLNTFGGGTEVVVKG
# B11: DR5TAA-0006 (antibody, V domains shown)
# VH: QSLEESGGRLVTPGTPLTLTCTASGFSLSSNHMSWVRQAPGKGLEWIGYIYAGSGSAYYASWAKGRFTISRTSTTVDLKMTSLTTEDTATYFCAGDAGSSYWEFNLWGPGTLVTVSS
# VL: LVMTQTPSSTSEPVGGTVTIKCQASQSIGSSLSWYQQKPGQPPKLLIYHASTLASGVPSRFSGSRSGIQTTLTISGVQCDDAATYYCLGVADARRDDGFAFGGGTEVVVKG
# B12: DR5TAA-0013 (antibody, V domains shown)
# VH: B11 VH with S27T, L28I, N31Y, G55A, A57T, Y58W, A63V, R71K, G95R
# VL: LVMTQTPSSTSEPVGGTVTIKCQASQSIGSSLSWYQQTPGQPPKLLIYTASSLASSVPKRFSGSRSGTQFTLTISGVQCADAATYYCLGIDDVRRDDGFAFGGGTEVVVKG
# B13: DR5TAA-0011 (antibody, V domains shown)
# VH: QSVEESGGRLVTPGTPLTLTCTVSGFSISRYAMIWVRQAPGEGLEYIGFITSDSSAYYASWAKGRFTISKTSTTVDLKMTSPTTEDTATYFCARYTYSDGTDLWGPGTLVTVSS
# VL: DIVMTQTPASVSEPVGGTVTIKCQASQSISTYLSWYQQKPGQPPKRLIYKASTLASGVPSRFKGSGSGTDFTLTIRDLECADAATYYCQPNSGIATYGAAFGGGTEVVVKG
# Target: human DR5 (recombinant, fusion format not stated for the assay) (human)
# Test: SPR, antibody captured by anti-human Fc, analyte at 500 nM
row,binding,Binder
1,binds,B1
2,binds,B2
3,binds,B3
4,binds,B4
5,binds,B5
6,binds,B6

# Target: human DR5 (recombinant, fusion format not stated for the assay) (human)
# Test: SPR (Biacore), antibody captured on the chip, human DR5 at 200 nM in solution; RU binding divided by RU capture relative to the unstressed sample
row,binding,Binder
1,binds,B7
2,binds,B8
3,binds,B9
4,binds,B10
5,binds,B11
6,binds,B12
7,binds,B13
